No constants are given. Whether binding was seen depends on the method and setting. Binding seen in cells or lysates may run through a third protein. Some entries that bind do so weakly or less than the wild type.
What was measured:
[1] = target: GST-fused SH2 domain of Lck (UniProt P06239); assay: pull-down; 5 µg GST-fusion protein on Sepharose beads incubated 2 h at 4 °C with 200 µg lysate of osteoclasts treated with TNF-α and bone particles for 3-4 h; washed with lysis buffer and cold PBS; immunoblot with LPL and TRAF-6 antibodies; only the target purified
[2] = target: GST-fused full-length PI3-K (p85) (UniProt P27986); assay: as above
[3] = target: GST-fused SH3 domain of p85 (PI3-K) (UniProt P27986); assay: as above
[4] = target: GST-fused SH2 domain of c-Src (UniProt P12931); assay: as above
[5] = target: T1, TNF-α receptor 1 (TNFR1) (mouse (endogenous in osteoclasts)) (UniProt P25118); assay: co-IP; lysates (RIPA buffer) of mouse osteoclasts untreated or treated with TNF-α and bone particles for 3-4 h, immunoprecipitated with an antibody to TNFR1 (nonimmune serum as control), immunoblot with TRAF-6 antibody
T1 sequence: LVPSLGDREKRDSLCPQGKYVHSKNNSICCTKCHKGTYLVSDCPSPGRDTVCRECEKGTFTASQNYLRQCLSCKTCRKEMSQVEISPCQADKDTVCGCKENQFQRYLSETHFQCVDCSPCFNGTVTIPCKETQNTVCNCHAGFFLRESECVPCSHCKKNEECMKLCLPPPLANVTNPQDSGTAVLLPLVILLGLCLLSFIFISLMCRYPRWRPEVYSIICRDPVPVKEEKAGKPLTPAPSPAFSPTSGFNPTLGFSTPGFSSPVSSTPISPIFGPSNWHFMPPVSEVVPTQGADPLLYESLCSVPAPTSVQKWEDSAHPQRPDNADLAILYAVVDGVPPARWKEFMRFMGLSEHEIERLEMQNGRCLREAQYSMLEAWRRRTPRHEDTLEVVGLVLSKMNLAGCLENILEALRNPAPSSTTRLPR

By UniProt entry, the sequences of proteins in these tests, tags left out. Where a name states a change or a piece, a line headed by the entry shows the natural chain unless it says otherwise. Chains listed by the source or under a name are the forms on record and can include a tag or linker. Residues count along the entry.
UniProt P06239, residues 127-224: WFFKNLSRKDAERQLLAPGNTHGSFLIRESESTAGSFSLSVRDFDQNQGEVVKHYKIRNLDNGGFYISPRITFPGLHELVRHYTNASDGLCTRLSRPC
UniProt P27986: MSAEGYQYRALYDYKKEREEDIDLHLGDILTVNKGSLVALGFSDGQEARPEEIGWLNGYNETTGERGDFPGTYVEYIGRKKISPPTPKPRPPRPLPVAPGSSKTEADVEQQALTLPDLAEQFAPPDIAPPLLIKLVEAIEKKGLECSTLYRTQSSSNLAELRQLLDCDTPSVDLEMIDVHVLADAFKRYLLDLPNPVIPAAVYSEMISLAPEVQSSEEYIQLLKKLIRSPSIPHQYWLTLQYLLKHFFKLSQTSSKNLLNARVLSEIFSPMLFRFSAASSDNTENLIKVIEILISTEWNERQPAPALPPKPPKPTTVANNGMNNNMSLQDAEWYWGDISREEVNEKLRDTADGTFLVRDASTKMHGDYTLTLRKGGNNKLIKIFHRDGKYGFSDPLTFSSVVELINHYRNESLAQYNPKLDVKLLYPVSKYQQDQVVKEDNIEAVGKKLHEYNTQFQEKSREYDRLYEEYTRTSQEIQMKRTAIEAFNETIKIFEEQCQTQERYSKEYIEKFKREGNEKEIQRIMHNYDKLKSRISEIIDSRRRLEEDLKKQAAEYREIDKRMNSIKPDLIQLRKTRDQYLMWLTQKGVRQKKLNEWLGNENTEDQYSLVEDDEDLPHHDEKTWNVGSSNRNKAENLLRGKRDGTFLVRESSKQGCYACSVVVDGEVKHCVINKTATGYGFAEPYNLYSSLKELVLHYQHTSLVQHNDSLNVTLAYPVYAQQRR
GST-fused SH3 domain of p85 (PI3-K): residues 3-79 of P27986

Measured: binding

B1: L-plastin (LPL) (protein, UniProt Q61233 1-627)
chain: MARGSVSDEEMMELREAFAKVDTDGNGYISCNELNDLFKAACLPLPGYRVREITENLMATGDLDQDGKISFDEFIKVFHGLKSTEVAKTFRKAINKKEGICAIGGTSEQSSVGTQHSYSEEEKYAFVNWINKALENDPDCRHVIPMNPNTDDLFNAVGDGIVLCKMINLSVPDTIDERTINKKKLTPFTIQENLNLALNSASAIGCHVVNIGAEDLKEGKPYLVLGLLWQVIKIGLFADIELSRNEALIALLREGESLEDLMKLSPEELLLRWANYHLENAGCTKITNFSTDIKDSKAYYHLLEQVAPKGDEEGIPAVVIDMSGLREKDDIQRAECMLQQAERLGCRQFVTATDVVRGNPKLNLAFIANLFNKYPALHKPENQDIDWGALEGETREERTFRNWMNSLGVNPRVNHLYSDLSDALVIFQLYEKIKVPVDWNRVNKPPYPKLGGNMKKLENCNYAVDLGKNQAKFSLVGIAGQDLNEGNRTLTLALVWQLMRRYTLNILEDIGGGQKVNDDIIVNWVNTTLKEAQKSSSIASFKDPKISTSLPVLDLIDAIQPGSINYDLLKTENLDDEEKLNNAKYAISMARKIGARVYALPEDLVEVNPKMVMTVFACLMGKGMKRV
not listed: [5]
binds: all other assays above

B2: TRAF-6 (protein, UniProt P70196 1-530)
chain: MSLLNCENSCGSSQSSSDCCAAMAASCSAAVKDDSVSGSASTGNLSSSFMEEIQGYDVEFDPPLESKYECPICLMALREAVQTPCGHRFCKACIIKSIRDAGHKCPVDNEILLENQLFPDNFAKREILSLTVKCPNKGCLQKMELRHLEDHQVHCEFALVNCPQCQRPFQKCQVNTHIIEDCPRRQVSCVNCAVSMAYEEKEIHDQSCPLANIICEYCGTILIREQMPNHYDLDCPTAPIPCTFSVFGCHEKMQRNHLARHLQENTQLHMRLLAQAVHNVNLALRPCDAASPSRGCRPEDPNYEETIKQLESRLVRQDHQIRELTAKMETQSMYVGELKRTIRTLEDKVAEMEAQQCNGIYIWKIGNFGMHLKSQEEERPVVIHSPGFYTGRPGYKLCMRLHLQLPTAQRCANYISLFVHTMQGEYDSHLPWPFQGTIRLTILDQSEALIRQNHEEVMDAKPELLAFQRPTIPRNPKGFGYVTFMHLEALRQGTFIKDDTLLVRCEVSTRFDMGGLRKEGFQPRSTDAGV
binds: [3] | [4] | [5]
